# The list shows a part of the results. Most entries show no effect beyond the scatter of the controls.
# Chains of the proteins cited; added tags and fusions are not shown. Lines headed by an entry give the natural chain unless they say otherwise; changes in a name come on top.
# UniProt Q9NUA8: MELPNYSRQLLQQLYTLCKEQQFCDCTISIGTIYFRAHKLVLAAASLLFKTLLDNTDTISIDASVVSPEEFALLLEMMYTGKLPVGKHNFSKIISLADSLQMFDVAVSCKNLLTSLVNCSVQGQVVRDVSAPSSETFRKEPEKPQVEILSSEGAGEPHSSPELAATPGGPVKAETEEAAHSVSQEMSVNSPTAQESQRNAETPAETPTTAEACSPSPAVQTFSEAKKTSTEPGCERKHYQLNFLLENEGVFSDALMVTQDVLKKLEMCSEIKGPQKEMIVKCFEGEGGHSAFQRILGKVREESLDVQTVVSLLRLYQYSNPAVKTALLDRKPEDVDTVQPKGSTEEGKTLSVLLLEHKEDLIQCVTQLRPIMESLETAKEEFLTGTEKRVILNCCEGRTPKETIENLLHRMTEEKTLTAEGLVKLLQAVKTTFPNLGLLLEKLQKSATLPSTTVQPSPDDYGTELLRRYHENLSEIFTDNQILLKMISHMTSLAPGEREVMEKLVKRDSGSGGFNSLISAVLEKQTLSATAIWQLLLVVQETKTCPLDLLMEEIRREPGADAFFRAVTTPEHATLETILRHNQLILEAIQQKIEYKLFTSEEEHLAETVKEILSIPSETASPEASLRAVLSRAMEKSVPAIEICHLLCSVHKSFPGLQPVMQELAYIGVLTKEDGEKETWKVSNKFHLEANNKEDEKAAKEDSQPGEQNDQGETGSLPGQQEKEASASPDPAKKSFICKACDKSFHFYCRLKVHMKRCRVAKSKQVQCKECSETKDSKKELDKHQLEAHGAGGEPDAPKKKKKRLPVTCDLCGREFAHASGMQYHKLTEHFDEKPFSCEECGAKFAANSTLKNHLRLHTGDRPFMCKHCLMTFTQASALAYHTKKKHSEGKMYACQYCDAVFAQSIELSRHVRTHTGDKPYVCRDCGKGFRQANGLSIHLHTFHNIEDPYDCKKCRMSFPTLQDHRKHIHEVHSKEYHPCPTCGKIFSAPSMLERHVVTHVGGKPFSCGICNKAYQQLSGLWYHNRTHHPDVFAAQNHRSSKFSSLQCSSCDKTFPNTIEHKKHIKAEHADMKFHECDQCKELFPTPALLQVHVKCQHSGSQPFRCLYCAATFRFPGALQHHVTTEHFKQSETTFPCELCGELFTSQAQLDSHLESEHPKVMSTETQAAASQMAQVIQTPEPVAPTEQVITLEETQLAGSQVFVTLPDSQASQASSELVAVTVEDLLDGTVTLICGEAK
# UniProt Q9HD15: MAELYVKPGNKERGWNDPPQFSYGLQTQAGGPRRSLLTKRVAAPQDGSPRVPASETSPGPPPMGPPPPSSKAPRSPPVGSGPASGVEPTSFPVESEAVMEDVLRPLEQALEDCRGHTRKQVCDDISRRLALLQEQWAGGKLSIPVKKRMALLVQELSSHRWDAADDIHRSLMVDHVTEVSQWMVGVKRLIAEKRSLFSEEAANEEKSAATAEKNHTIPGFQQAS
# UniProt Q9NVM6: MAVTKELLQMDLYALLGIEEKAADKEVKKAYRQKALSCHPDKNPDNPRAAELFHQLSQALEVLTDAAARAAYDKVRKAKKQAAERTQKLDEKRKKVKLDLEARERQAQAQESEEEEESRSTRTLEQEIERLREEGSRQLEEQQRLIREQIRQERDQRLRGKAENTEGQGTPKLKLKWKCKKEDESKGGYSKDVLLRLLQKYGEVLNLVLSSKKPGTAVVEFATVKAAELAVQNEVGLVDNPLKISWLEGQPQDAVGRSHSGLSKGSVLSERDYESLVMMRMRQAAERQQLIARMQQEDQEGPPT
# UniProt Q9NS18: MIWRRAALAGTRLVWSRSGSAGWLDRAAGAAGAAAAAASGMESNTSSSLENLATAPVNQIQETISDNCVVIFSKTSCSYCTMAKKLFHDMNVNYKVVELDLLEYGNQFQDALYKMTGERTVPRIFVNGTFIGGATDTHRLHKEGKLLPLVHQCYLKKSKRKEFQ
# UniProt Q9HCL3: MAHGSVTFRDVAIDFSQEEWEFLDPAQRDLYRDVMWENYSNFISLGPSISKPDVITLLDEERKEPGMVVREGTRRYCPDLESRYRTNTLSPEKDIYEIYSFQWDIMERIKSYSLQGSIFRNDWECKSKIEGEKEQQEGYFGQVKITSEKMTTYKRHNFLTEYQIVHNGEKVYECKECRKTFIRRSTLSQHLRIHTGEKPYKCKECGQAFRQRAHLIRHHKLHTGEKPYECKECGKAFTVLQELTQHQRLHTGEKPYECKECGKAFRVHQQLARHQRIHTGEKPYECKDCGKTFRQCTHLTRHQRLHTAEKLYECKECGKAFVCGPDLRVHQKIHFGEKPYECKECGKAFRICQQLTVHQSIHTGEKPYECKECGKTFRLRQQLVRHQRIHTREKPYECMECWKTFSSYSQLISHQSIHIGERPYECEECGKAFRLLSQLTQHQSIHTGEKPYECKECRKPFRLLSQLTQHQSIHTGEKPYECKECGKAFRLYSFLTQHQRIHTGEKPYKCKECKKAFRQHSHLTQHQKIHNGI
# UniProt Q9HCM1: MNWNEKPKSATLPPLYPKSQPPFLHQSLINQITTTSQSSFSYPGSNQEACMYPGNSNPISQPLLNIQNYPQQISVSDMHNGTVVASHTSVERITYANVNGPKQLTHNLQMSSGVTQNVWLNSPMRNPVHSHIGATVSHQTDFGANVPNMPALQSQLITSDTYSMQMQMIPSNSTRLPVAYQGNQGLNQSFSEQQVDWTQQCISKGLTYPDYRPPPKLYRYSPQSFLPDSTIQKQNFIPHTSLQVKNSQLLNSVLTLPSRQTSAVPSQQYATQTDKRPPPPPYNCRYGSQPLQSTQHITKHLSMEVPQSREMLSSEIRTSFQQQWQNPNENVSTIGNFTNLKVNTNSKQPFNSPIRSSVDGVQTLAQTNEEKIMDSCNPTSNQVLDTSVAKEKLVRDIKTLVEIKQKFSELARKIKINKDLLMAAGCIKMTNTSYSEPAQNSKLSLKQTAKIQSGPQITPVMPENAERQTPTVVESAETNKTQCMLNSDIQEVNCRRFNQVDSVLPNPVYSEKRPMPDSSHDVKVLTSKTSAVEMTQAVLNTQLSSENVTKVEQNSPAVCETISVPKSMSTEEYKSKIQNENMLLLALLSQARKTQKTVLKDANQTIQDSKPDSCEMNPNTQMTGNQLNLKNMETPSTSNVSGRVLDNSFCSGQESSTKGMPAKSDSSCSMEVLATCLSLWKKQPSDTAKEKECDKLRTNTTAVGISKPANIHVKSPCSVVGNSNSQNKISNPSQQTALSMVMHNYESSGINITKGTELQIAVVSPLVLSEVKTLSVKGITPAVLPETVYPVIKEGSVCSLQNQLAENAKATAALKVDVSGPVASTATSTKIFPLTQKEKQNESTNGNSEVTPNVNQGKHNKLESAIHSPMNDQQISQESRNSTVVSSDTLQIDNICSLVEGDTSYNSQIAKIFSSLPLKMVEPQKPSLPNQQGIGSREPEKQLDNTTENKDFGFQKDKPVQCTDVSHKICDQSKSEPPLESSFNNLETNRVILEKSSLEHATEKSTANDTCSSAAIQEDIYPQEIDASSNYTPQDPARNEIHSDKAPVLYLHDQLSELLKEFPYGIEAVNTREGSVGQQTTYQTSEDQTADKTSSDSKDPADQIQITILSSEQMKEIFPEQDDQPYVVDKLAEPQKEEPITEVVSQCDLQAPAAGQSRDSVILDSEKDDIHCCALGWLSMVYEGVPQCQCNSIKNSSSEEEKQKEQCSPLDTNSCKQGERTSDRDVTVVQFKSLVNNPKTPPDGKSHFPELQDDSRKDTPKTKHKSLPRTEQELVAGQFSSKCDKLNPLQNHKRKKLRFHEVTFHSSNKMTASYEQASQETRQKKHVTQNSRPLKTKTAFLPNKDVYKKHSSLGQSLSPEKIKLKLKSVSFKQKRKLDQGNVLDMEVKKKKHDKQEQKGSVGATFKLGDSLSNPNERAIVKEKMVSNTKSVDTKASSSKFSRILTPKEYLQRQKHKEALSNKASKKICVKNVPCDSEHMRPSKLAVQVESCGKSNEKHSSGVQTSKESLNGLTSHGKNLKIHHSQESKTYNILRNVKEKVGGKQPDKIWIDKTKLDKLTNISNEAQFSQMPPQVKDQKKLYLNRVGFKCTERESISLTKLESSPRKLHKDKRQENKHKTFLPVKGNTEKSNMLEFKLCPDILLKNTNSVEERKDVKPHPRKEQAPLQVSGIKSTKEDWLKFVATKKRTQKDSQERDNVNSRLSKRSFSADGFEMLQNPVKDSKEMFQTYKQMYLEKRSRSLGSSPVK
# UniProt Q9NUQ8: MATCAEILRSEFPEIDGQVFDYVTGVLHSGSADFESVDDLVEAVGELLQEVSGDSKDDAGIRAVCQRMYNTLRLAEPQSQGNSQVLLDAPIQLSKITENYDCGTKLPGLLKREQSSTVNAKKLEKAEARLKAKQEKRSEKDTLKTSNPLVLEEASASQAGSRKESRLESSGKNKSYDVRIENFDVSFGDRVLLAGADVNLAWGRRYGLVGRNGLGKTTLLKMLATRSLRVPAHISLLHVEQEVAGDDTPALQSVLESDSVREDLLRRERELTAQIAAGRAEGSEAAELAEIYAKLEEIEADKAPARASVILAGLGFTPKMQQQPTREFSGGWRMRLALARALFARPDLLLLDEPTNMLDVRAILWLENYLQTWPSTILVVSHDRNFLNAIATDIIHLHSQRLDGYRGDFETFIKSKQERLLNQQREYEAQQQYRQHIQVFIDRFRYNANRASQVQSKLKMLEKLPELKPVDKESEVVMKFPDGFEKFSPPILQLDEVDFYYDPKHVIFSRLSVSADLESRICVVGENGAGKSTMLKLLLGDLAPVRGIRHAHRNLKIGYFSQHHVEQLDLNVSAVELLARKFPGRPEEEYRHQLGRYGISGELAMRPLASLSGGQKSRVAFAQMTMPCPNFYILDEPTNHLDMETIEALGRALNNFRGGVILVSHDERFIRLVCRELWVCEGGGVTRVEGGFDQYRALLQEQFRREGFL
# UniProt Q9NR45: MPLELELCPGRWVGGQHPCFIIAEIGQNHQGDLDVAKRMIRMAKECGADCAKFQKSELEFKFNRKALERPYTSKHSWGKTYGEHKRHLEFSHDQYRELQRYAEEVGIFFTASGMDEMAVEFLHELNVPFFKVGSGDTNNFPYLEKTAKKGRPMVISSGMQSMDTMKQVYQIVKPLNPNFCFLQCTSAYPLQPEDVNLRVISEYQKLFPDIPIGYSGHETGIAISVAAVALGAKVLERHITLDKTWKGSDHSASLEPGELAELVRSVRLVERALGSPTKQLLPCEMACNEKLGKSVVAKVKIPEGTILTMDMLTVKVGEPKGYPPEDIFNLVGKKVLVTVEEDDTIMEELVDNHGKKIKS
# UniProt Q9NP77: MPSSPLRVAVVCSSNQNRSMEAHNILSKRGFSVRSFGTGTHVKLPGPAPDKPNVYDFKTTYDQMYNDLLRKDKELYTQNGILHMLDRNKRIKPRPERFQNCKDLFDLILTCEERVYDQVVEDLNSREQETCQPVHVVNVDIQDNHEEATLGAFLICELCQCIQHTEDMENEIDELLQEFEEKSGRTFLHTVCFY
# UniProt Q9HCU8: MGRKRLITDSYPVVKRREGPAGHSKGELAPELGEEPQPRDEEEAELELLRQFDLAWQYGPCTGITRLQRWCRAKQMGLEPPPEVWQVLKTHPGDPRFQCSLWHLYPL
# UniProt Q9NVX2: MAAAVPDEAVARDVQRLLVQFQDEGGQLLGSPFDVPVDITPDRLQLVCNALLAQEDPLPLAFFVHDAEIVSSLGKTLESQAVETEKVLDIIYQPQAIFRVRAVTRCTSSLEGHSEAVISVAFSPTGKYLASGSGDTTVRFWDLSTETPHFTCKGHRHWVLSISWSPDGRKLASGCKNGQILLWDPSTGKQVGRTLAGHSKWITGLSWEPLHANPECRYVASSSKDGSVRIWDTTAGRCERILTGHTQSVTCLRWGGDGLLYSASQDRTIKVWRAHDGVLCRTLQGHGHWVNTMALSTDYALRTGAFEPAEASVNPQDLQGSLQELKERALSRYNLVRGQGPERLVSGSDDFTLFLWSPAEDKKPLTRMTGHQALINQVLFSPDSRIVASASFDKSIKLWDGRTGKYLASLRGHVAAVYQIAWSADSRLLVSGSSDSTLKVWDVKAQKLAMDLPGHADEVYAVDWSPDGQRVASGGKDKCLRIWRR
# Compound: Cc1nc(Nc2ncc(C(=O)Nc3c(C)cccc3Cl)s2)cc(N2CCN(CCO)CC2)n1 [dasatinib]
# Test: log2 fold change of tryptic peptide abundance, ligand vs vehicle (limited proteolysis) (log2 ratio); higher = more trypsin-susceptible (destabilized)
# Conditions: ligand concentration: 5 uM; sample: K562 cleared lysate
row,Target,log2 fold change
1,"ZBTB40 (peptide sequence: DVSAPSSETFR, peptide start residue: 128) (UniProt Q9NUA8)",0.348
2,"SRA1 (peptide sequence: RMALLVQELSSHR, peptide start residue: 148) (UniProt Q9HD15)",0.332
3,"DNAJC17 (peptide sequence: DYESLVMMR, peptide start residue: 272) (UniProt Q9NVM6)",-0.142
4,"GLRX2 (peptide sequence: LLPLVHQCYLKK, peptide start residue: 146) (UniProt Q9NS18)",-0.167
5,"UniProt Q9HCL3 (peptide sequence: LHTGEKPYECKECGK, peptide start residue: 331)",-0.0613
6,"UniProt Q9HCM1 (peptide sequence: TAFLPNKDVYKK, peptide start residue: 1338)",-0.212
7,"ABCF3 (peptide sequence: LLLGDLAPVR, peptide start residue: 537) (UniProt Q9NUQ8)",-0.112
8,"NANS (peptide sequence: VGEPKGYPPEDIFNLVGK, peptide start residue: 316) (UniProt Q9NR45)",0.346
9,"SSU72 (peptide sequence: DKELYTQNGILHMLDR, peptide start residue: 72) (UniProt Q9NP77)",0.169
10,"POLD4 (peptide sequence: LITDSYPVVK, peptide start residue: 6) (UniProt Q9HCU8)",-0.0203
11,"NLE1 (peptide sequence: IVASASFDK, peptide start residue: 386) (UniProt Q9NVX2)",-0.255

# Some of the entries above, set out differently:
row | Target | log2 fold change
9 | SSU72 (peptide sequence: DKELYTQNGILHMLDR, peptide start residue: 72) (UniProt Q9NP77) | 0.169
10 | POLD4 (peptide sequence: LITDSYPVVK, peptide start residue: 6) (UniProt Q9HCU8) | -0.0203

# Reference: the supplement of paper PMC12819154, “High-throughput peptide-centric local stability assay extends protein–ligand identification to membrane proteins, tissues and bacteria” (Nature Structural & Molecular Biology, 2025)
